Assay [1] addresses T1, Human short CD146 protein (human) (UniProt P43121).
T1 sequence: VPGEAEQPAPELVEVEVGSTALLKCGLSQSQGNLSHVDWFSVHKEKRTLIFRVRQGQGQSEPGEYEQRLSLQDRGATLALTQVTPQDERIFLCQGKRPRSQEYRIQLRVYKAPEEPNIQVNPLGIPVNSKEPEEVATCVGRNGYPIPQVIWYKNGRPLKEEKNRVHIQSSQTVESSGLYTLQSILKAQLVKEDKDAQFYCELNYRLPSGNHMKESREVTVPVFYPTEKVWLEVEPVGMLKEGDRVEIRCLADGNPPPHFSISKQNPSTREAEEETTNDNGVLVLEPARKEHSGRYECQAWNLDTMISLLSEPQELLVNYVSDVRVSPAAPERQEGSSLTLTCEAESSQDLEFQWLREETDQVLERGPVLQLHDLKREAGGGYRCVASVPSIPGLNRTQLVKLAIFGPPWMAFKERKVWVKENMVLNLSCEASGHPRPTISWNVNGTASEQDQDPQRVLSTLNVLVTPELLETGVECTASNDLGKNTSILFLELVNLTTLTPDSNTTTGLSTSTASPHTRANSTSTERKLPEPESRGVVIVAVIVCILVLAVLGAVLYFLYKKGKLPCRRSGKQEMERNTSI
Put plainly: co-immunoprecipitation from ECFC treated with TNF.

Amino acid sequences for entries named in this document (tags omitted). Residues count along the entry.
UniProt P78536, residues 215-824: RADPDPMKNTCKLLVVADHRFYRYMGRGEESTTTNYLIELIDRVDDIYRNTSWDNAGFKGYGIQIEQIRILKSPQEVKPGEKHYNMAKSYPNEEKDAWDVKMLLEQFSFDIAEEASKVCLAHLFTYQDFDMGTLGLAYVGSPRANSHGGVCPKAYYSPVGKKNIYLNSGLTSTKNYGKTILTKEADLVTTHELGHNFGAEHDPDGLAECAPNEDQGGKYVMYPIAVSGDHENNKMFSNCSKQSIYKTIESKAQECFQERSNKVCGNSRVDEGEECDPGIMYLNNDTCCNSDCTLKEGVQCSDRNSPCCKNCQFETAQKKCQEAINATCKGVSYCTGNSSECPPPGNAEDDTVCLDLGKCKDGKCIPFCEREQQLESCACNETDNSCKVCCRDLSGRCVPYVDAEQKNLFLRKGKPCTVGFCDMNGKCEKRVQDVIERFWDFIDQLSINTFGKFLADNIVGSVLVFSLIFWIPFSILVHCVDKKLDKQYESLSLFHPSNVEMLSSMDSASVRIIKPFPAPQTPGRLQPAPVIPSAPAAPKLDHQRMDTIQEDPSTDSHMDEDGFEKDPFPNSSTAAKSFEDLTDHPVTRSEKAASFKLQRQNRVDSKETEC

Assay [2] addresses T2, Human long CD146 protein (human) (UniProt P43121).
T2 sequence: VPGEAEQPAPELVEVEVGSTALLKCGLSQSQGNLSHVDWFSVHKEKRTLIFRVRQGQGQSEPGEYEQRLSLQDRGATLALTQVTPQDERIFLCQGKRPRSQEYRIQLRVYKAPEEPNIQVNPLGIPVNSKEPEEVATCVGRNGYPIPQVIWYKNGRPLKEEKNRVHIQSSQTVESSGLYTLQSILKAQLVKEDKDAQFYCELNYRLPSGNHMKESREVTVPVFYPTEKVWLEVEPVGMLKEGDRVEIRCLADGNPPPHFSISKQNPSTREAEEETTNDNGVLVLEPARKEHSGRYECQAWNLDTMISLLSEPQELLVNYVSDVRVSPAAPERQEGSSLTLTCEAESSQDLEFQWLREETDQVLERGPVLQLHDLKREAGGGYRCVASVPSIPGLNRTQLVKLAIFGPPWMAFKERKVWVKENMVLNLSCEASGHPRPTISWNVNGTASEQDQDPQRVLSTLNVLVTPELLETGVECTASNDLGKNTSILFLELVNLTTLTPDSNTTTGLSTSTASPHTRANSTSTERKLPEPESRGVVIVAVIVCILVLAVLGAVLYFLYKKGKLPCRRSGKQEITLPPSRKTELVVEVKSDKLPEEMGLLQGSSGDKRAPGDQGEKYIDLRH
Put plainly: co-immunoprecipitation from ECFC treated with TNF.

The target of assay [3] is T2, Human long CD146 protein (human). Put plainly: co-immunoprecipitation from ECFC in control condition (ADAM10 immunoprecipitated, western blot for CD146 isoforms). A general note: Immunoblotting shows a protein as a band on a membrane.

No constants are given. Whether binding was seen depends on the method and setting. In cells and extracts the contact can be indirect. Some binding calls cover weakened binding; strength is not graded here.

“Tace (from UniProt P78536 215-824) (enzyme)”: the binding result in assay [1] is “binds”.

B1: ADAM10 (protein)
chain: TTSAEKNTCQLYIQTDHLFFKYYGTREAVIAQISSHVKAIDTIYQTTDFSGIRNISFMVKRIRINTTADEKDPTNPFRFPNIGVEKFLELNSEQNHDDYCLAYVFTDRDFDDGVLGLAWVGAPSGSSGGICEKSKLYSDGKKKSLNTGIITVQNYGSHVPPKVSHITFAHEVGHNFGSPHDSGTECTPGESKNLGQKENGNYIMYARATSGDKLNNNKFSLCSIRNISQVLEKKRNNCFVESGQPICGNGMVEQGEECDCGYSDQCKDECCFDANQPEGRKCKLKPGKQCSPSQGPCCTAQCAFKSKSEKCRDDSDCAREGICNGFTALCPASDPKPNFTDCNRHTQVCINGQCAGSICEKYGLEECTCASSDGKDDKELCHVCCMKKMDPSTCASTGSVQWSRHFSGRTITLQPGSPCNDFRGYCDVFMRCRLVDADGPLARLKKAIFSPELYENIAEWIVAHWWAVLLMGIALIMLMAGFIKICSVHTPSSNPKLPPPKPLPGTLKRRRPPQPIQQPQRQRPRESYQMGHMRR
With B1, the binding entry in assay [2] and in assay [3] was “binds” in each case.

For the origin of these results see patent US20220003784A1 (ASSISTANCE PUBLIQUE H PITAUX DE MARSEILLE, published 2022).
